{
  "source": "PubChem BioAssay AID248",
  "about": "(DTP/NCI, 2004)",
  "tested_on": "L1210 leukemia ip in BDF1 mice, survival T/C",
  "assay": "NCI In Vivo Anticancer Drug Screen. Data for tumor model L1210 Leukemia (intraperitoneal) in B6D2F1 (BDF1) mice",
  "conditions": "higher T/C = longer survival",
  "key": {"[1]": {"conditions": "T/C endpoint: mean survival time, dose: 400.0 mg/kg/injection, schedule: Q04DX003 (ip), vehicle: saline"}, "[2]": {"conditions": "T/C endpoint: mean survival time, dose: 200.0 mg/kg/injection, schedule: Q04DX003 (ip), vehicle: Klucel (hydroxypropylcellulose) (HPC)"}, "[3]": {"conditions": "T/C endpoint: mean survival time, dose: 400.0 mg/kg/injection, schedule: Q04DX003 (ip), vehicle: Klucel (hydroxypropylcellulose) (HPC)"}, "[4]": {"conditions": "T/C endpoint: mean survival time, dose: 200.0 mg/kg/injection, schedule: Q04DX003 (ip), vehicle: saline"}},
  "note": "The list does not hold the whole screen: it gathers tests that were run many times, whatever their T/C, doses with no T/C, and many T/C values between a quarter and a half above the control. Other doses and runs of a compound stand elsewhere. T/C gives the treated animals as a percentage of the vehicle group. Some doses have a count of surviving animals in place of a T/C: the source holds a T/C of zero for them, seemingly a mark for toxic or unscored doses. Some survivor counts are full or nearly so, which does not show that the dose was tolerated: the source hardly ever lists a survival T/C far under the control, and the zero likely stands for such cases as well. Survivors were counted at the toxicity check, usually on the fifth day, unless a day is given; later deaths do not show. Schedules are NCI's codes, taken here to give the interval after Q, in days (D) or hours (H), and the number of doses after X. Some schedules carry Z or #; the key to these is not given. For survival time, this PubChem deposit counts one and a half times the control or more as active, and values a quarter to a half above the control carry no call in these data; other NCI protocols may use other cut-offs.",
  "data": [
    {"molecule": "COc1ccc(-c2nc(SCc3ccc(Cl)cc3)[nH]c(=O)c2CCO)cc1", "values": [
      {"measurement": "survivor count", "setting": "[1]", "result": "6 of 6"}
    ]},
    {"molecule": "NC(=S)NN=C1CCSCC1", "values": [
      {"measurement": "survivor count", "setting": "T/C endpoint: mean survival time, dose: 65.0 mg/kg/injection, schedule: Q01DX Z (ip), vehicle: methylcellulose (MC)", "result": "0 of 7"},
      {"measurement": "survivor count", "setting": "T/C endpoint: mean survival time, dose: 108.0 mg/kg/injection, schedule: Q01DX Z (ip), vehicle: methylcellulose (MC)", "result": "0 of 7"}
    ]},
    {"molecule": "CNC(=S)N/N=C1/C(=N\\NC(=S)NC)C(=O)OC1C(O)CO", "note": "(stereo not given)", "values": [
      {"measurement": "survivor count", "setting": "T/C endpoint: mean survival time, dose: 400.0 mg/kg/injection, schedule: Q01DX009 (ip), vehicle: saline with Tween-80", "result": "4 of 6"}
    ]},
    {"molecule": "N#CC(C#N)=C/C=C/c1cccc([N+](=O)[O-])c1", "values": [
      {"measurement": "survivor count", "setting": "T/C endpoint: mean survival time, dose: 75.0 mg/kg/injection, schedule: Q01DX009 (ip), vehicle: saline", "result": "3 of 6"},
      {"measurement": "survivor count", "setting": "T/C endpoint: mean survival time, dose: 150.0 mg/kg/injection, schedule: Q01DX009 (ip), vehicle: saline", "result": "3 of 6"},
      {"measurement": "survivor count", "setting": "T/C endpoint: mean survival time, dose: 300.0 mg/kg/injection, schedule: Q01DX009 (ip), vehicle: saline", "result": "0 of 6"}
    ]},
    {"molecule": "O=S1(=O)CCC2C1C1(Cl)C(Cl)=C(Cl)C2(Cl)C1(Cl)Cl", "note": "(stereo not given)", "values": [
      {"measurement": "survivor count", "setting": "T/C endpoint: mean survival time, dose: 100.0 mg/kg/injection, schedule: Q04DX003 (ip), vehicle: saline with Tween-80", "result": "2 of 6"},
      {"measurement": "survivor count", "setting": "T/C endpoint: mean survival time, dose: 200.0 mg/kg/injection, schedule: Q04DX003 (ip), vehicle: saline with Tween-80", "result": "0 of 6"},
      {"measurement": "survivor count", "setting": "T/C endpoint: mean survival time, dose: 400.0 mg/kg/injection, schedule: Q04DX003 (ip), vehicle: saline with Tween-80", "result": "0 of 6"}
    ]},
    {"molecule": "O=S(=O)([O-])Sn1c(-c2ccccc2)c[n+]2ccccc12", "values": [
      {"measurement": "survivor count", "setting": "T/C endpoint: mean survival time, dose: 75.0 mg/kg/injection, schedule: Q01DX001 (ip), vehicle: saline", "result": "2 of 6"},
      {"measurement": "survivor count", "setting": "T/C endpoint: mean survival time, dose: 150.0 mg/kg/injection, schedule: Q01DX001 (ip), vehicle: saline", "result": "0 of 6"},
      {"measurement": "survivor count", "setting": "T/C endpoint: mean survival time, dose: 300.0 mg/kg/injection, schedule: Q01DX001 (ip), vehicle: saline", "result": "0 of 6"}
    ]},
    {"molecule": "Cc1c[n+]([O-])ccc1N=Nc1ccc(N(C)C)cc1", "values": [
      {"measurement": "survivor count", "setting": "[2]", "result": "6 of 6"},
      {"measurement": "survivor count", "setting": "[3]", "result": "4 of 6"}
    ]},
    {"molecule": "O=C[C@@H](CO)O[C@H](C=O)n1cnc2c(=O)[nH]cnc21", "values": [
      {"measurement": "T/C", "setting": "T/C endpoint: mean survival time, dose: 35.0 mg/kg/injection, schedule: Q01DX009 (ip), vehicle: saline", "result": "126 % of control"},
      {"measurement": "T/C", "setting": "T/C endpoint: mean survival time, dose: 70.0 mg/kg/injection, schedule: Q01DX009 (ip), vehicle: saline", "result": "143 % of control"},
      {"measurement": "T/C", "setting": "T/C endpoint: mean survival time, dose: 70.0 mg/kg/injection, schedule: Q01DX Z (ip), vehicle: water", "result": "145 % of control"},
      {"measurement": "T/C", "setting": "T/C endpoint: mean survival time, dose: 80.0 mg/kg/injection, schedule: Q01DX009 (ip), vehicle: saline", "result": "141 % of control"},
      {"measurement": "T/C", "setting": "T/C endpoint: mean survival time, dose: 270.0 mg/kg/injection, schedule: Q01DX009 (ip), vehicle: saline", "result": "137 % of control"},
      {"measurement": "survivor count", "setting": "T/C endpoint: mean survival time, dose: 280.0 mg/kg/injection, schedule: Q01DX009 (ip), vehicle: saline", "result": "3 of 6"},
      {"measurement": "T/C", "setting": "T/C endpoint: median survival time, dose: 39.0 mg/kg/injection, schedule: Q01DX009 (ip), vehicle: water", "result": "144 % of control"},
      {"measurement": "T/C", "setting": "T/C endpoint: median survival time, dose: 65.0 mg/kg/injection, schedule: Q01DX009 (ip), vehicle: water", "result": "144 % of control"},
      {"measurement": "survivor count", "setting": "T/C endpoint: median survival time, dose: 300.0 mg/kg/injection, schedule: Q01DX009 (ip), vehicle: water", "result": "3 of 8"}
    ]},
    {"molecule": "CN1CCN=C(c2ccccc2)c2cc(Cl)ccc21", "values": [
      {"measurement": "survivor count", "setting": "T/C endpoint: mean survival time, dose: 200.0 mg/kg/injection, schedule: Q01DX009 (ip), vehicle: saline", "result": "0 of 6"},
      {"measurement": "survivor count", "setting": "[4]", "result": "4 of 4"},
      {"measurement": "survivor count", "setting": "T/C endpoint: mean survival time, dose: 400.0 mg/kg/injection, schedule: Q01DX009 (ip), vehicle: saline", "result": "0 of 6"},
      {"measurement": "survivor count", "setting": "[1]", "result": "1 of 4"}
    ]},
    {"molecule": "O=C(O)C(O)c1cccc(Cl)c1", "note": "(stereo not given)", "values": [
      {"measurement": "survivor count", "setting": "T/C endpoint: mean survival time, dose: 300.0 mg/kg/injection, schedule: Q01DX001 (ip), vehicle: acetone", "result": "1 of 6"}
    ]},
    {"molecule": "CC(=O)C(C=NCCN=CC(C(C)=O)C(C)=O)C(C)=O.[Ni]", "values": [
      {"measurement": "survivor count", "setting": "T/C endpoint: mean survival time, dose: 400.0 mg/kg/injection, schedule: Q04DX002 (ip), vehicle: saline with Tween-80", "result": "3 of 3"}
    ]},
    {"molecule": "CCCCCCCCCCCC(=O)NC(=S)Nc1ccc(OC)cc1", "values": [
      {"measurement": "survivor count", "setting": "T/C endpoint: mean survival time, dose: 100.0 mg/kg/injection, schedule: Q04DX003 (ip), vehicle: Klucel (hydroxypropylcellulose) (HPC)", "result": "6 of 6"},
      {"measurement": "survivor count", "setting": "[2]", "result": "6 of 6"},
      {"measurement": "survivor count", "setting": "[3]", "result": "6 of 6"}
    ]},
    {"molecule": "NC(=O)C(c1ccccc1)N1CCCC1", "note": "(stereo not given)", "values": [
      {"measurement": "survivor count", "setting": "[4]", "result": "1 of 6"},
      {"measurement": "survivor count", "setting": "[1]", "result": "0 of 6"}
    ]}
  ]
}
